# Results of single-concentration screens

The filed quantity is “Percent Effect” (%).
The record does not define 0% and 100%; most values in the screen are far below 50% and negative numbers occur (in some assays of this library far below -100).
Compounds were drawn at random from those tested, without regard to their results.
Two or more numbers in one place are separate tests of the same structure; such repeats can differ widely.

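Whole-cell growth test on Mycobacterium tuberculosis, read after 4 days in a medium based on cholesterol and the lipid DPPC; the read-out is not stated. Tested at 50 µM. The record gives no direction; compounds that gave an IC50 in retests scored well above the rest, so higher reads as more growth inhibition. Of about 69,000 compounds tested this way, about 370 (0.54%) reached 50% or more in at least one test.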

| compound | percent effect |
|---|---|
| `Cn1c(NCc2ccc(C(N)=O)cc2)nc2cc(Cl)ccc21` | 14.98 |
| `Cc1cc2c(cc1Cl)C=CC1(CCN(CC(=O)NC3CCCC3)CC1)O2` | 35.37 and 53.95 |
| `CC[S+](CC)[c-]1c(=O)[nH]c(=O)n(Cc2ccc(F)cc2)c1=O` | -12.52 |
| `O=C(C1CCSCC1)N1CCC2(CC1)COC(COCC1CC1)C2` (centres undefined) | -9.025 |
| `[H][C@@]12CS(=O)(=O)C[C@]1([H])N(C(=O)NCC)CCN2Cc1nc2ccccc2[nH]1` | -3.195 |
| `CN(Cc1nccn1C)C(=O)C1COCC(=O)N1Cc1ccccc1` (centres undefined) | -4.19 |
| `CN(Cc1ccc(Cl)s1)C(=O)c1cccc(OCC(N)=O)c1` | 42.3 |
| `O=C(c1ccc(Br)o1)N1CCN(Cc2ccc(F)cc2)CC1` | 37.92 |
| `CCS(=O)(=O)NCCNCc1cc(F)ccc1Br` | 15.77 |
| `COc1ccc2c(OCC(=O)NCC(F)(F)F)ccnc2c1` | 8.726 |
| `OCCNc1cc(-c2ccncc2)ncn1` | -17.47 |
| `CCCN1C(=O)CC(N2CCN(c3ccc(F)cc3)CC2)C1=O` (centres undefined) | -25.94 |
| `Cc1ccc(C(=O)NC2CCN(Cc3noc(C(C)C)n3)CC2)s1` | -16.76 |
| `CC(C)N(CC(N)=O)C(=O)CCC(=O)c1ccc(F)cc1F` | -19.08 |
| `CC(=O)Nc1c(C)cnn1Cc1cc(F)ccc1F` | 1.219 |
| `CCCNC(=O)CCNC(=O)N1CCc2c(F)ccc(F)c2C1` | -9.923 |
| `CCc1nnc(CN(CC)C(=O)C2CC(=O)N(CC)C2)o1` (centres undefined) | 6.25 |
| `Cc1nc2sccn2c1C(=O)N1CCc2c(nc(N(C)C)[nH]c2=O)C1` | -9.225 and -10.14 |
| `Cn1ccnc1CN1CCOC(C)(C(=O)N2CCOCC2)C1` (centres undefined) | -4.102 |
| `CCc1nnc(CNC2CCN(c3ncnc4c(C)csc34)CC2)s1` | 15.68 and -9.39 |
| `CN1CCC(NC(=O)C2CN(c3cncnc3)CCO2)CC1` (centres undefined) | -4.132 |
| `CCc1noc(CN(C)C(=O)C2COc3ccccc3C2)n1` (centres undefined) | -1.152 and -4.674 |
| `O=C(NCC1CCOC1)c1cc(-c2ccccc2Cl)[nH]n1` (centres undefined) | -25.79 |
| `Cc1nc(CNC(=O)NCc2cccnc2N(C)C)cs1` | -8.728 |
| `CCN(CC)S(=O)(=O)NCC1COc2ccccc2O1` (centres undefined) | -5.98 |
| `COCCN(Cc1sccc1C)Cc1nccn1CCOC` | 0.04616 and 9.607 |
| `O=C(NCc1ccco1)c1[nH]nc2c1CS(=O)(=O)CC2` | -18.37 |
| `CCCOCCCNc1nccc(-c2cn(C)nc2C)n1` | 10.93 |
| `CCc1noc(CN2CCCC(Cn3nc(C)nc3C)C2)n1` (centres undefined) | -39.87 |
| `OCC1CCCN1c1cc(NCc2cccnc2)ncn1` (centres undefined) | 0.6441 |
| `N#Cc1ccc(C(=O)NS(=O)(=O)c2ccc(F)c(F)c2)cc1` | -7.929 |
| `[H][C@@]12CCN(CC3CC3)C[C@]1(C(=O)NCCc1ccccn1)CCO2` | 9.055 |
| `O=C(O)C(F)(F)F.[H][C@@]12CCN(Cc3cccs3)C[C@]1(C(=O)N1CCCO1)CCO2` | 3.434 |
| `Cc1cc(CS(=O)(=O)N(C)C(C)c2ccc(Cl)cc2)on1` (centres undefined) | 7.034 |
| `CCOc1cccc(CNC(=O)c2cnn(CC)c2C(F)(F)F)c1` | 7.042 |
| `CC1CN(Cc2ccccn2)CCN1c1ccc2nncn2n1` (centres undefined) | -4.966 |
| `O=C(O)C(F)(F)F.O=C(c1ccoc1)N1CCOC2(COCCN(CC3CC3)C2)C1` (centres undefined) | 9.751 |
| `CC(C)c1nnc(CN2CCCC2Cn2cncn2)o1` (centres undefined) | -11.84 |
| `CC(C)C1CCCN1C(=O)Nc1ccc(=O)n(C)c1` (centres undefined) | -1.847 |
| `COc1ccc(F)cc1CN1CCC(O)(CN2CCCCC2)C1` (centres undefined) | -12.38 |
| `c1cnc(NCC2Cn3nnc(-c4ccsc4)c3CO2)nc1` (centres undefined) | -10.73 and -7.049 |
| `c1cn(CCc2c[nH]cn2)c(-c2cc(CN3CCCC3)cs2)n1` | 19.98 |
| `c1ccc(-c2nnc(CNCC3CCCN3c3cccnn3)o2)cc1` (centres undefined) | -21.52 and -1.587 |
| `Cn1ccnc1CN1CCOC(Cc2ccccc2)C1` (centres undefined) | 9.294 |
| `O=C1OCCCN1Cc1nc(-c2ccc(N3CCCCC3)cc2)no1` | 26.95 |
| `CN(CCCOc1ccccc1Cl)C(=O)CN1CCCCCC1=O` | 6.342 |
| `Cc1cc(N2CCC(N(C)C(=O)c3ccccc3F)CC2)nc(C)n1` | 19.86 |
| `Cc1nc(C2CCCN2Cc2nnc(C3CC3)o2)no1` (centres undefined) | 6.532 |
| `Cc1cc(C[C@@H]2COC[C@H]2NCc2ccc(C)c(C)c2)on1.O=C(O)CC(O)(CC(=O)O)C(=O)O` | 18.9 |
| `Cn1ncc2c1CCCN(C(=O)C1CCCC1)C2` | -0.468 and -15.34 |
| `NC(=O)C1CCN(C(=O)NC2CCc3cc(Cl)ccc32)CC1` (centres undefined) | 5.474 |
| `CC(=O)c1cccc(NC(=O)Cn2cnc(-c3ccccc3)cc2=O)c1` | 2.164 |
| `CN1CCOCC12CCN(Cc1ccoc1)CC2.O=C(O)C(F)(F)F.O=C(O)C(F)(F)F` | -8.102 |
| `[H][C@@]12CCN(Cc3cccs3)C[C@@]1([H])O[C@H](c1ccnc(C)n1)C2` | -7.186 |
| `[H][C@]12CCCCN1CCC[C@H]2CN(C)Cc1cnn(-c2ccccc2C)c1` | 6.068 |
| `O=C(N1CCC(Oc2ccncc2)C1)C1(c2ccc(F)cc2)CC1` (centres undefined) | 0.4718 |

Data taken from ChEMBL document CHEMBL3988442, “University of Dundee, Small-Polar-MMV Screening Library” (2021).